According to PMC7862700:
This is a selection; strong and weak results do not stand in their true shares. At the low end of the ranking, values are background and their order means little.

The sequences below were run against T1, ELK3 (UniProt P41970) (assay: DAPPL (digital affinity profiling via proximity ligation, sequencing)). Conditions: 10 mM Tris-HCl pH 7.5, 50 mM NaCl, 1 mM DTT, 4% glycerol, room temperature, 30 min; GST-TFs on glutathione beads, 16-mer random dsDNA library, 0.1% …; high values mean tight binding; double strand, one strand shown; scale: fold enrichment (6-mer frequency, TF over GST control).
T1 sequence: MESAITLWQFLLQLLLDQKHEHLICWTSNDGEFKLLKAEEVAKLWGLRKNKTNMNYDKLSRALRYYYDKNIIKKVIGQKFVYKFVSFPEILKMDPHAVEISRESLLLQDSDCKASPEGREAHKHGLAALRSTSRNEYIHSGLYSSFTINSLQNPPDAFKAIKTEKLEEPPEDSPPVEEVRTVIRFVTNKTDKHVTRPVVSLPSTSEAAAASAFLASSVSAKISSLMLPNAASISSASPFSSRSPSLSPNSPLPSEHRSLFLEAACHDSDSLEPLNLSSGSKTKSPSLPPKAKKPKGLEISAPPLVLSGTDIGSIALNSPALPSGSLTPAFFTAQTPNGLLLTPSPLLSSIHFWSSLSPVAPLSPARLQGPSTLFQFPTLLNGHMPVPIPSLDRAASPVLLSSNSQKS

Sequence | binding signal
ATCGCG | 0.891
GCTAGA | 0.962
TTTAGA | 0.991
TGACGG | 0.953
CATGCG | 0.947
GTAATC | 1.11
TAAGGA | 0.951
TAAGTC | 0.938
TCCGAG | 0.885
TTAGAG | 0.877
GAATAG | 0.847
GACCCA | 0.917
GAAAGG | 0.909
GTGTTG | 0.815
AGGGAT | 0.796
ACCCGT | 0.874
GTTGAA | 0.89
CAGAAC | 0.876
AGGATT | 0.97
GAAAGC | 0.771

Sequence | binding signal
ACGGTA | 0.943
TAGTCA | 0.836
GGAATA | 0.921
CTAGTG | 0.891
TGCGTC | 0.974
AAGGTC | 0.932
GGCAGC | 0.893
CATAGA | 0.933
GCAGGT | 0.928
GCGGCA | 0.937
GTGGTA | 0.815
GCCTGA | 0.9
CATAAA | 0.994
TAGGCC | 0.959
GTCACC | 0.91
GACTTG | 0.716
ACTCAG | 0.969
TTCGGG | 0.882
AGAAGG | 0.698

The sequences below were run against T2, SPIC (UniProt Q8N5J4) in the same assay as above. Conditions: 10 mM Tris-HCl pH 7.5, 50 mM NaCl, 1 mM DTT, 4% glycerol, room temperature, 30 min; GST-TFs on glutathione beads, 16-mer random dsDNA library, 0.1% …; high values mean tight binding; double strand, one strand shown; scale: fold enrichment (6-mer frequency, TF over GST control).
T2 sequence: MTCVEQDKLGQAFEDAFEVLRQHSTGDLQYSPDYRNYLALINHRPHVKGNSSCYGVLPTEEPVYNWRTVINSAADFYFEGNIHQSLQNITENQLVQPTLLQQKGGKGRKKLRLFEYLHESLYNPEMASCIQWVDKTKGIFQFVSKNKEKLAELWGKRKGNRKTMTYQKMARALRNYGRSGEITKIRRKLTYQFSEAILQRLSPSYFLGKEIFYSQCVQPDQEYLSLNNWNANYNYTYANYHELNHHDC

Sequence | binding signal
ATCGCG | 0.889
GCTAGA | 0.855
TTTAGA | 0.935
TGACGG | 0.977
CATGCG | 1
GTAATC | 0.972
TAAGGA | 0.917
TAAGTC | 0.868
TCCGAG | 0.882
TTAGAG | 0.886
GAATAG | 0.898
GACCCA | 0.922
GAAAGG | 0.918
GTGTTG | 0.952
AGGGAT | 0.741
ACCCGT | 0.967
GTTGAA | 0.881
CAGAAC | 0.957
AGGATT | 0.782
GAAAGC | 0.933

Sequence | binding signal
ACGGTA | 0.904
TAGTCA | 0.95
GGAATA | 0.831
CTAGTG | 0.8
TGCGTC | 0.983
AAGGTC | 0.898
GGCAGC | 0.822
CATAGA | 0.973
GCAGGT | 0.771
GCGGCA | 0.797
GTGGTA | 0.874
GCCTGA | 0.867
CATAAA | 0.994
TAGGCC | 0.988
GTCACC | 0.914
GACTTG | 0.675
ACTCAG | 1.11
TTCGGG | 0.94
AGAAGG | 0.64

Each sequence was assayed against T3, ETS2 (UniProt P15036) in the same assay as above. Conditions: 10 mM Tris-HCl pH 7.5, 50 mM NaCl, 1 mM DTT, 4% glycerol, room temperature, 30 min; GST-TFs on glutathione beads, 16-mer random dsDNA library, 0.1% …; high values mean tight binding; double strand, one strand shown; scale: fold enrichment (6-mer frequency, TF over GST control).
T3 sequence: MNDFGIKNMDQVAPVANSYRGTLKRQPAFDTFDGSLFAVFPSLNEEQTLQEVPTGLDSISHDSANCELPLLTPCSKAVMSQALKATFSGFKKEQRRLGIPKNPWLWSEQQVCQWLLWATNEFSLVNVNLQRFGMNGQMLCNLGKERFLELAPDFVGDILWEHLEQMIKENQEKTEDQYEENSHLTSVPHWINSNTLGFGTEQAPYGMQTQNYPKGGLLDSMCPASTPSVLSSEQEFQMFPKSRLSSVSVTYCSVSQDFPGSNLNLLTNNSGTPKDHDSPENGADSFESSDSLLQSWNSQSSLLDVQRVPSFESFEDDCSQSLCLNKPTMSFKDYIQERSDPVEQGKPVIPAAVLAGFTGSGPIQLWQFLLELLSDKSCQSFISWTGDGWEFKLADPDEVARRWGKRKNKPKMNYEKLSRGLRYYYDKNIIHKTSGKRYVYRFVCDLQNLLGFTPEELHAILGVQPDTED

Sequence | binding signal
ATCGCG | 0.926
GCTAGA | 0.98
TTTAGA | 0.943
TGACGG | 0.907
CATGCG | 1
GTAATC | 1.16
TAAGGA | 0.881
TAAGTC | 0.909
TCCGAG | 0.888
TTAGAG | 0.85
GAATAG | 0.854
GACCCA | 0.875
GAAAGG | 0.982
GTGTTG | 0.811
AGGGAT | 0.81
ACCCGT | 0.899
GTTGAA | 0.885
CAGAAC | 0.903
AGGATT | 0.944
GAAAGC | 0.875

Sequence | binding signal
ACGGTA | 0.917
TAGTCA | 0.87
GGAATA | 0.903
CTAGTG | 0.846
TGCGTC | 1
AAGGTC | 0.915
GGCAGC | 0.858
CATAGA | 0.952
GCAGGT | 0.893
GCGGCA | 0.868
GTGGTA | 0.942
GCCTGA | 1.02
CATAAA | 0.98
TAGGCC | 0.92
GTCACC | 0.902
GACTTG | 0.8
ACTCAG | 0.97
TTCGGG | 0.921
AGAAGG | 0.753

What follows are sequences tested against T4, ETV3 (UniProt P41162-2) in the same assay as above. Conditions: 10 mM Tris-HCl pH 7.5, 50 mM NaCl, 1 mM DTT, 4% glycerol, room temperature, 30 min; GST-TFs on glutathione beads, 16-mer random dsDNA library, 0.1% …; high values mean tight binding; double strand, one strand shown; scale: fold enrichment (6-mer frequency, TF over GST control).
T4 sequence: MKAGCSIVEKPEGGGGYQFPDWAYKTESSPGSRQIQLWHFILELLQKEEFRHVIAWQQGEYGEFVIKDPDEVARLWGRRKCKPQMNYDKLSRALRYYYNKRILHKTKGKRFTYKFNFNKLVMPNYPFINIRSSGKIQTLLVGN

Sequence | binding signal
ATCGCG | 0.912
GCTAGA | 0.955
TTTAGA | 0.998
TGACGG | 0.933
CATGCG | 1.03
GTAATC | 1.1
TAAGGA | 0.953
TAAGTC | 0.907
TCCGAG | 0.995
TTAGAG | 0.91
GAATAG | 0.966
GACCCA | 0.827
GAAAGG | 0.966
GTGTTG | 0.994
AGGGAT | 0.784
ACCCGT | 0.947
GTTGAA | 0.874
CAGAAC | 0.896
AGGATT | 0.891
GAAAGC | 0.869

Sequence | binding signal
ACGGTA | 0.977
TAGTCA | 0.858
GGAATA | 0.888
CTAGTG | 0.796
TGCGTC | 0.93
AAGGTC | 0.938
GGCAGC | 0.971
CATAGA | 0.889
GCAGGT | 0.958
GCGGCA | 0.877
GTGGTA | 0.806
GCCTGA | 0.96
CATAAA | 0.982
TAGGCC | 0.89
GTCACC | 0.877
GACTTG | 0.927
ACTCAG | 0.95
TTCGGG | 1.03
AGAAGG | 0.656
